Experimental data: PubChem BioAssay AID1259405 (NCATS, 2018)
In all, the deposit lists about 50,000 reagents; this is an unselected part. About 4,000 of all reagents (8%) were called active. 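Mouse siRNA library applied to hamster cells; one well for each siRNA.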 Reagents against one gene are numbered here.

Screen: 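Silenced genes that increase secreted GFP made by CHO cells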 (primary screen)
System: Chinese hamster CHO-K1 ovary cells with stable secreted eGFP expression
Reagents: single siRNA against mouse genes, 0.8 pmol siRNA per well (2 µl of 400 nM stock)
Time to read-out: 3 days
Read-out: 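Per-well intracellular GFP measured by laser scanning cytometry, plus viability from ATP luminescence, each relative to plate median of non-targeting control wells, in %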
Reading the numbers: GFP, % of control: higher = more GFP per well, higher productivity; viability (ATP), % of control: higher = more viable cells (more ATP)
Active means: 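a knock-down is called active if GFP reaches 120% or more of non-targeting control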

GFP, % of control	viability (ATP), % of control	call	Target gene	reagent no.
153	103	active	Gem (GTP binding protein overexpressed in skeletal muscle)	1
82.4	63.8	inactive	Gem (GTP binding protein overexpressed in skeletal muscle)	2
120	86.8	inactive	Gem (GTP binding protein overexpressed in skeletal muscle)	3
60.1	47.6	inactive	Ciao1 (cytosolic iron-sulfur protein assembly 1)	1
83.6	87.5	inactive	Ciao1 (cytosolic iron-sulfur protein assembly 1)	2
90.3	103	inactive	Ciao1 (cytosolic iron-sulfur protein assembly 1)	3
147	90.2	active	Srsf3 (serine and arginine-rich splicing factor 3)	1
112	111	inactive	Srsf3 (serine and arginine-rich splicing factor 3)	2
72.2	89.1	inactive	Pgam1 (phosphoglycerate mutase 1)	1
39.6	68.9	inactive	Pgam1 (phosphoglycerate mutase 1)	2
108	48.4	inactive	Pgam1 (phosphoglycerate mutase 1)	3
93.8	76	inactive	Sf3b3 (splicing factor 3b, subunit 3)	1
125	101	active	Sf3b3 (splicing factor 3b, subunit 3)	2
103	67.6	inactive	Chid1 (chitinase domain containing 1)	1
91.7	79.8	inactive	Chid1 (chitinase domain containing 1)	2
114	102	inactive	Chid1 (chitinase domain containing 1)	3
16.5	33.9	inactive	Cd274 (CD274 antigen)	1
80.3	76.8	inactive	Cd274 (CD274 antigen)	2
57.1	66	inactive	Cd274 (CD274 antigen)	3
141	82.8	active	Ccnq (cyclin Q)	1
62.3	73.5	inactive	Ccnq (cyclin Q)	2
109	92.5	inactive	Ccnq (cyclin Q)	3
65.9	67.1	inactive	C130021I20Rik (Riken cDNA C130021I20 gene)	1
74	97.5	inactive	C130021I20Rik (Riken cDNA C130021I20 gene)	2
87.9	95.6	inactive	C130021I20Rik (Riken cDNA C130021I20 gene)	3
68	68.5	inactive	Rhbdd2 (rhomboid domain containing 2)	1
45	38.4	inactive	Rhbdd2 (rhomboid domain containing 2)	2
87.9	53.2	inactive	Rhbdd2 (rhomboid domain containing 2)	3
67.5	78.7	inactive	Rhbdd2 (rhomboid domain containing 2)	4
45	55.3	inactive	Rhbdd2 (rhomboid domain containing 2)	5
85.2	103	inactive	Rhbdd2 (rhomboid domain containing 2)	6
38.7	50.4	inactive	Lgals3 (lectin, galactose binding, soluble 3)	1
63.9	75.6	inactive	Lgals3 (lectin, galactose binding, soluble 3)	2
93.4	60.9	inactive	Lgals3 (lectin, galactose binding, soluble 3)	3

4 of these entries, set out differently:
{"Target gene": "Pgam1 (phosphoglycerate mutase 1)", "reagent no.": 2, "GFP, % of control": 39.6, "viability (ATP), % of control": 68.9, "call": "inactive"}
{"Target gene": "Pgam1 (phosphoglycerate mutase 1)", "reagent no.": 3, "GFP, % of control": 108, "viability (ATP), % of control": 48.4, "call": "inactive"}
{"Target gene": "Sf3b3 (splicing factor 3b, subunit 3)", "reagent no.": 1, "GFP, % of control": 93.8, "viability (ATP), % of control": 76, "call": "inactive"}
{"Target gene": "Sf3b3 (splicing factor 3b, subunit 3)", "reagent no.": 2, "GFP, % of control": 125, "viability (ATP), % of control": 101, "call": "active"}
